The source of these data is PMC12207404, “Significance of the CTP-binding motif for the interactions of S. coelicolor ParB with DNA, chromosome segregation, and sporogenic hyphal growth” (Nucleic Acids Research, 2025).

This test concerns the target S. coelicolor ParA (ScParA), bacterial two-hybrid fusion (S. coelicolor). Put plainly: two-hybrid; bacterial two-hybrid (BACTH): pUT18C and pKT25 derivatives cotransformed into E. coli BTH101; blue colonies on LB agar with X-gal and 0.5 mM IPTG, 30°C, and β-galactosidase activity (Miller units).

No constants are given. Whether binding was seen depends on the method and setting. Binding can be weak; no strength is given. Tags and fused reporters may be left off the sequences shown.

B1: ScParB^G140S;R142A, bacterial two-hybrid fusion (protein, UniProt Q9RFM2 1-368)
chain: MSERRRGLGRGLGALIPNAPTEKSVASAALGSAASAAPGAMPLLPNERGVAAAKVATLQHVSRETEELTAPQGVEGLRPPMGAHFAEVPLDAITPNPKQPRKDFDDDALAELVTSIREVGLLQPVVVRPTEPGRYELIMSEARFRACRELELDAIPAIVRATEDEKLLLDALLENLHRAQLNPLEEAFAYDQLLKDFNCTHDQLADRIGRSRPQVSNTLRLLKLSPKVQNRVAAGVLSAGHARALLSVDDPEEQDRLAHRIVAEGLSVRSVEEIVTLMGSRPQKPQRAKGPRAGSLVSPALSDLATRLSDRFETRVKVDLGQKKGKITVEFASMDDLERILGSLAPGEGPVLQKGLLEGEDEDGDAES
For B1, the binding result was “binds”.

B2: S. coelicolor ParB (ScParB), wild type, bacterial two-hybrid fusion (protein, UniProt Q9RFM2 1-368)
chain: MSERRRGLGRGLGALIPNAPTEKSVASAALGSAASAAPGAMPLLPNERGVAAAKVATLQHVSRETEELTAPQGVEGLRPPMGAHFAEVPLDAITPNPKQPRKDFDDDALAELVTSIREVGLLQPVVVRPTEPGRYELIMGERRFRACRELELDAIPAIVRATEDEKLLLDALLENLHRAQLNPLEEAFAYDQLLKDFNCTHDQLADRIGRSRPQVSNTLRLLKLSPKVQNRVAAGVLSAGHARALLSVDDPEEQDRLAHRIVAEGLSVRSVEEIVTLMGSRPQKPQRAKGPRAGSLVSPALSDLATRLSDRFETRVKVDLGQKKGKITVEFASMDDLERILGSLAPGEGPVLQKGLLEGEDEDGDAES
On to B2, for which the binding result is “binds”.
